Hit rate of the full screen: of about 410,000 compounds, about 18,000 (4.4%) were called active. Inconclusive results, whose numbers are uncertain, are shown with a selection of clear calls. Rule as the data show it: active = activity change below about -60%; inconclusive = no clear call, values can overlap the other calls; inactive = above about -39%.
Test: qHTS Assay for inhibitors of the human cytomegalovirus (HCMV)
Conditions: HFF cells, HCMV-luciferase reporter, 72 h; at 57.5 µM; hits give low values
In short: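 After 16 h attachment at 37C, HFF cells received test compound and HCMV-luciferase (1 PFU/cell); reporter luminescence read 72 h later, data normalized against buffer-only and known inhibitor Salinomycin.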
% is scaled to controls: 0 for no effect and ±100 for the full control effect.

| Compound | activity change, negative = inhibition |
| --- | --- |
| CCc1ccc(N(CC)C(=O)CCn2cnc3onc(-c4ccc(F)cc4)c3c2=O)cc1 | inactive: 4.29% |
| C[C@H](NC(=O)c1[nH]cnc1C(=O)Nc1cccc(Cl)c1)c1ccccc1 | inconclusive: -59% |
| O=C(NCc1ccccc1F)Nc1nnc([C@@H]2C[C@H](O)[C@@H](CO)O2)s1 | inactive: -0.326% |
| CCCCn1c(O)c(C(CC)=Nc2ccc(C(=O)O)cc2)c(=O)[nH]c1=O | inactive: 19.5% |
| COc1cc(/C=C(/C#N)C(=O)Nc2ccccc2)ccc1OCc1ccc(C(=O)O)cc1 | inconclusive: -52.6% |
| CCCCCC/C(C)=C1/SC(=S)NC1=O | inconclusive: -40.9% |
| COc1ccc(C(=O)CCS(=O)(=O)c2ccc(C)cc2)cc1 | inconclusive: -50.2% |
| COc1ccc(S(=O)(=O)Nc2cc(Sc3ncn[nH]3)c(O)c3ccccc23)cc1 | active: -77.6% |
| O=C(NCCc1ccccc1)c1cc2ccccc2oc1=O | active: -103% |
| CCC(=O)N1CCN(c2ccc(Cl)cc2NC(=O)c2ccc3c(c2)OCCO3)CC1 | active: -61.2% |
| N#CC1=C(SCC(=O)NC23CC4CC(CC(C4)C2)C3)NC(=O)C(C#N)C12CCCCC2 (stereo not given) | active: -66.1% |
| NC(=NCc1ccc2c(c1)OCO2)NC(=O)c1ccccc1 | inconclusive: -43.8% |
| CN1C(=O)Cc2cc(S(=O)(=O)CCC(=O)Nc3ccc(Cl)c(C(F)(F)F)c3)ccc21 | inconclusive: -42.4% |
| O=S(=O)(N/N=C\c1cccnc1)c1ccccc1 | inconclusive: -45.9% |
| NC(=O)c1cnc(Cc2c[nH]c3ccccc23)c(I)c1 | inactive: -15.3% |
| Nc1ccc(Sc2nnnn2-c2ccccc2)c(Cl)c1 | inconclusive: -46.1% |
| COC(=O)c1ccc(NC(=O)CN(c2ccc(C)cc2)S(=O)(=O)c2c(C)nn(C)c2C)cc1 | inconclusive: -48.8% |
| NNC(=O)C(=O)NCCCN1CCOCC1 | inconclusive: -41.9% |
| NC(Cc1ccc(C(F)(F)F)cc1)c1csc(Nc2ccc(C(=O)c3ccccc3)cc2)n1 (stereo not given) | active: -63.1% |
| O=C(c1ccccc1S(=O)(=O)NCC(O)COc1ccc([N+](=O)[O-])cc1)N1CCCCC1 (stereo not given) | inconclusive: -44.8% |
| C=CCNC(=S)NNC(=O)c1ccncc1 | active: -63.9% |
| CCN(CC)P(=O)(c1ccccc1)c1c(C)nc2ccccn12 (stereo not given) | inactive: 24.1% |
| COC(=O)c1ccccc1NC(=O)c1ccc(-c2nc(COc3ccccc3)c(C)o2)cc1 | inactive: -1.5% |
| CN(CCOc1ccc(Br)cc1)CC(=O)Nc1cccc(S(=O)(=O)NC2=NCCC2)c1 | inconclusive: -54.1% |
| CC(C)Cc1ccc(CN2C(C)C(=O)N(Cc3cn(Cc4ccco4)nn3)CCS2(=O)=O)cc1 (stereo not given) | inactive: -10.1% |
| CCN(CC(=O)Nc1ccc(C(=O)Nc2ccc(OC)cc2)cc1)Cc1nc2ccccc2c(=O)[nH]1 | inactive: -0.548% |
| CC(C)C1C(C#N)=C(N)Oc2n[nH]c(C(C)(C)C)c21 (stereo not given) | inconclusive: -58.2% |
| Cc1cc(NC(=O)CCS(=O)(=O)c2nc(-c3ccccc3)cc(C(F)(F)F)n2)no1 | active: -104% |

A second format for three compounds above:
Compound	activity change, negative = inhibition
CCc1ccc(N(CC)C(=O)CCn2cnc3onc(-c4ccc(F)cc4)c3c2=O)cc1	inactive: 4.29%
O=C(NCc1ccccc1F)Nc1nnc([C@@H]2C[C@H](O)[C@@H](CO)O2)s1	inactive: -0.326%
CN1C(=O)Cc2cc(S(=O)(=O)CCC(=O)Nc3ccc(Cl)c(C(F)(F)F)c3)ccc21	inconclusive: -42.4%

Next records:

| Compound | activity change, negative = inhibition |
| --- | --- |
| CC(C)CN(CCCNC(=O)c1cc(-c2cccs2)nc2ccccc12)CC(C)C | inactive: -10.5% |
| O=C(Nc1ccc([N+](=O)[O-])cc1)Nc1ccc2[nH]c(=O)[nH]c2c1 | inconclusive: -40.6% |
| CCCCN(CC)CCCNC(=S)Nc1ccc2nc3n(c(=O)c2c1)CCCCC3 | inconclusive: -49.9% |
| CC1(c2ccccc2Cl)NC(=O)N(CC(=O)Nc2ccc(N3CCCCC3)cc2)C1=O (stereo not given) | inconclusive: -51.1% |
| CCc1cccc(NC(=O)C2CCCC2)c1 | inactive: 16.7% |
| CCOc1ccc(N(CC(=O)Nc2ccccc2OC)S(=O)(=O)c2ccccc2)cc1 | active: -86.7% |
| COc1ccc(C(CNc2ccc(S(=O)(=O)N3CCN(C)CC3)cc2[N+](=O)[O-])N(C)C)cc1 (stereo not given) | inactive: -19.3% |
| CNC(=S)N1N=C(c2ccc(Br)cc2)CC1c1ccc(N(C)C)cc1 (stereo not given) | inconclusive: -44.1% |
| CCOc1ccccc1NC(=O)CSc1nc(=O)n(CCN2CCOCC2)c2c1CCCC2 | active: -81.3% |
| Cc1nn(C)c(C(=O)N2CCN(C(=O)c3ccco3)CC2)c1Br | inactive: -8.29% |
| Cc1ccc(N2CCN(S(=O)(=O)N3CCCCC3)CC2)cc1Cl | inactive: 28.4% |
| COCCNc1nc(-c2ccc(OC)cc2)c(-c2ccc(OC)cc2)s1 | active: -68.9% |
| C(=N\Nc1nc2ccccc2[nH]1)/c1cccc2cccnc12 | active: -101% |
| Cn1c(=O)c([N+](=O)[O-])c(N2CCSCC2)c2ccccc21 | inconclusive: -58.9% |
| COc1ccc(CC(=O)Nc2nc(-c3cccnc3)cs2)cc1 | inactive: -10.7% |
| COc1ccc(N2CCN(C(=O)c3cc4c(C)nc5ccccc5c4o3)CC2)cc1 | active: -99.9% |
| Cc1noc(C)c1-c1ccc(C(=O)Nc2cccc(C(F)(F)F)c2)c2occc12 | inactive: 29.6% |
| CCn1c2ccc(F)cc2c2nc3ccccc3nc21 | inactive: -20.4% |
| c1ccc(CNc2nc(-c3cccnc3)cs2)cc1 | inconclusive: -42.5% |
| CC(=O)N1CCN(Cc2nc3cc(NC(=O)Cn4nc(C)c5ccccc5c4=O)ccc3n2C)CC1 | inactive: -1.06% |
| CCC1(C)Cc2c(sc3nc(SC)[nH]c(=O)c23)CO1 (stereo not given) | inconclusive: -45.1% |
| COc1ccc(N(CC(=O)Nc2ccc(C(C)C)cc2)S(=O)(=O)c2c(C)noc2C)cc1 | inconclusive: -49.2% |
| COc1cccc(-c2nc(SCC(=O)Nc3nc(-c4ccccc4)c(C)s3)[nH]c(=O)c2C#N)c1 | inconclusive: -51.2% |
| CCOC(=O)C1C(=O)OC(C)(C)C1C(C)C(=O)c1ccc(C)cc1 (stereo not given) | inconclusive: -43.3% |
| O=C(COC(=O)/C=C/c1cccs1)Nc1nc(-c2ccccc2)cs1 | inactive: 88.5% |
| Nc1nc(Cl)cc(Nc2ccccc2Cl)n1 | inconclusive: -40.4% |
| CCOc1ccc(CN2CCN(Cc3cnc(-c4ccccc4)s3)CC2CCO)cc1 (stereo not given) | inconclusive: -43.7% |
